Data from publication PMC10728118.

Amino acid sequences for entries named in this document (tags omitted).
UniProt P25490, whole entry: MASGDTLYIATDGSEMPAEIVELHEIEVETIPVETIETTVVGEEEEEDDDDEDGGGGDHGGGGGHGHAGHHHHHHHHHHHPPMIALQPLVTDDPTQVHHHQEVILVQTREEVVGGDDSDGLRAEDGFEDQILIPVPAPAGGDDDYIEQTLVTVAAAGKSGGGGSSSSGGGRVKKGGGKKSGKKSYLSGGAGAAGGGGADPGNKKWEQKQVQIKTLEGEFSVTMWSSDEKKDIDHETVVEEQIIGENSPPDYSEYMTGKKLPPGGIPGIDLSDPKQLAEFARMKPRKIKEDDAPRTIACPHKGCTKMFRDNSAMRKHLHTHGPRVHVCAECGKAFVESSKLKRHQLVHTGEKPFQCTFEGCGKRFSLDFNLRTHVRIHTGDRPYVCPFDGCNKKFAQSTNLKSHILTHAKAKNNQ

Columns and labels:
[1] = biological target: His-YY1 full-length (Abcam ab187479) (UniProt P25490); assay: EMSA; conditions: EMSA: 10 mM HEPES-KOH, 12 mM Tris-HCl, 50 mM NaCl, 50 mM KCl, 5 mM MgCl2, 100 uM ZnCl2, 0.01% NP-40, 5% glycerol, 2.5 mM DTT, pH 7.4, 25 C, 2.5 nM probe, commercial protein, residues 1-414, protein details: His, label: Cy5
[2] = biological target: His-YY1 full-length (UniProt P25490); assay: EMSA; conditions: EMSA: 10 mM HEPES-KOH, 12 mM Tris-HCl, 50 mM NaCl, 50 mM KCl, 5 mM MgCl2, 100 uM ZnCl2, 0.01% NP-40, 5% glycerol, 2.5 mM DTT, pH 7.4, 25 C, 2.5 nM probe; recombinant protein; residues 1-414; protein details: His; label: Cy5

“TGGGCAACATGGCGACACCC (double strand) [FuzzyYY1-a DNA]”: binds ([1]; disrupted by increasing (GGGGCC)8 RNA).

“AGTCCTAAATGGGGGAGGAG (double strand) [FuzzyYY1-b DNA]”: binds ([1]; disrupted by (GGGGCC)8 RNA, more susceptible than FuzzyYY1-a).

“GGGGCCGGGGCCGGGGCCGGGGCCGGGGCCGGGGCCGGGGCCGGGGCC (double strand) [(GGGGCC)8 DNA]”: binds more weakly [2].

For part of these data: Weaker means in comparison with the reference protein, sequence or condition of that experiment. For part of these data: For at least one entry, the source does not settle the construct or the ends of the probe.
